The supplement of paper PMC8728848
This is one part of the list.

Experiments:
Assay in all cases: glycan array binding signal (z-score within array); higher = stronger binding
Settings in all cases: glycan notation: IUPAC condensed, linker removed
[1] = target: Fuc(a1-3)[Gal3S(b1-4)]GlcNAc
How it was run: (§1)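 Glycan array binding is given as a within-array Z-score, which can be read as non-binding when negative. The arrays, 3228 of them, came from the Consortium for Functional Glycomics database and were retained only where the protein sequence was available. Z-scores were averaged across arrays of the same protein sequence at different concentrations or buffers and across linkers.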

[2] = target: Fuc(a1-3)[Gal3S(b1-4)]GlcNAc6S
How it was run: as §1

[3] = target: Fuc(a1-3)[GalNAc(b1-4)]GlcNAc
How it was run: as §1

[4] = target: Fuc(a1-3)[GalNAc(b1-4)]GlcNAc6S
How it was run: as §1

[5] = target: Fuc(a1-4)GlcNAc
How it was run: as §1

[6] = target: Fuc(b1-3)GlcNAc
How it was run: as §1

[7] = target: Gal(a1-2)Gal
How it was run: as §1

[8] = target: Gal(a1-3)Gal
How it was run: as §1

[9] = target: Gal(a1-3)Gal(b1-3)GlcNAc
How it was run: as §1

[10] = target: Gal(a1-3)Gal(b1-3)GlcNAc(b1-2)Man
How it was run: as §1

[11] = target: Gal(a1-3)Gal(b1-3)GlcNAc(b1-2)Man(a1-3)[Gal(a1-3)Gal(b1-3)GlcNAc(b1-2)Man(a1-6)]Man(b1-4)GlcNAc(b1-4)GlcNAc
How it was run: as §1

[12] = target: Gal(a1-3)Gal(b1-3)GlcNAc(b1-3)GalNAc
How it was run: as §1

[13] = target: Gal(a1-3)Gal(b1-3)GlcNAc(b1-6)GalNAc
How it was run: as §1

[14] = target: Gal(a1-3)Gal(b1-3)[Fuc(a1-4)]GlcNAc(b1-2)Man(a1-3)[Gal(a1-3)Gal(b1-3)[Fuc(a1-4)]GlcNAc(b1-2)Man(a1-6)]Man(b1-4)GlcNAc(b1-4)GlcNAc
How it was run: as §1

[15] = target: Gal(a1-3)Gal(b1-4)Glc
How it was run: as §1

[16] = target: Gal(a1-3)Gal(b1-4)GlcNAc
How it was run: as §1

[17] = target: Gal(a1-3)Gal(b1-4)GlcNAc(b1-2)Man
How it was run: as §1

[18] = target: Gal(a1-3)Gal(b1-4)GlcNAc(b1-2)Man(a1-3)[Gal(a1-3)Gal(b1-4)GlcNAc(b1-2)Man(a1-6)]Man(b1-4)GlcNAc(b1-4)GlcNAc
How it was run: as §1

[19] = target: Gal(a1-3)Gal(b1-4)GlcNAc(b1-3)GalNAc
How it was run: as §1

[20] = target: Gal(a1-3)Gal(b1-4)GlcNAc(b1-6)GalNAc
How it was run: as §1

[21] = target: Gal(a1-3)Gal(b1-4)[Fuc(a1-3)]GlcNAc
How it was run: as §1

[22] = target: Gal(a1-3)Gal(b1-4)[Fuc(a1-3)]GlcNAc(b1-2)Man(a1-3)[Gal(a1-3)Gal(b1-4)[Fuc(a1-3)]GlcNAc(b1-2)Man(a1-6)]Man(b1-4)GlcNAc(b1-4)GlcNAc
How it was run: as §1

[23] = target: Gal(a1-3)GalNAc
How it was run: as §1

[24] = target: Gal(a1-3)[Gal(a1-4)]Gal(b1-4)GlcNAc
How it was run: as §1

[25] = target: Gal(a1-4)Gal(b1-3)GlcNAc(b1-2)Man(a1-3)[Gal(a1-4)Gal(b1-3)GlcNAc(b1-2)Man(a1-6)]Man(b1-4)GlcNAc(b1-4)GlcNAc
How it was run: as §1

[26] = target: Gal(a1-4)Gal(b1-4)Glc
How it was run: as §1

[27] = target: Gal(a1-4)Gal(b1-4)GlcNAc
How it was run: as §1

[28] = target: Gal(a1-4)Gal(b1-4)GlcNAc(b1-2)Man(a1-3)[Gal(a1-4)Gal(b1-4)GlcNAc(b1-2)Man(a1-6)]Man(b1-4)GlcNAc(b1-4)GlcNAc
How it was run: as §1

[29] = target: Gal(a1-4)Gal(b1-4)GlcNAc(b1-3)Gal(b1-4)Glc
How it was run: as §1

[30] = target: Gal(a1-4)GlcNAc
How it was run: as §1

[31] = target: Gal(a1-6)Glc
How it was run: as §1

[32] = target: Gal(b1-2)Gal
How it was run: as §1

[33] = target: Gal(b1-3)Gal
How it was run: as §1

[34] = target: Gal(b1-3)Gal(b1-4)GlcNAc
How it was run: as §1

[35] = target: Gal(b1-3)GalNAc
How it was run: as §1

[36] = target: Gal(b1-3)GalNAc(a1-3)[Fuc(a1-2)]Gal(b1-4)Glc
How it was run: as §1

[37] = target: Gal(b1-3)GalNAc(a1-3)[Fuc(a1-2)]Gal(b1-4)GlcNAc
How it was run: as §1

[38] = target: Gal(b1-3)GalNAc(b1-3)Gal
How it was run: as §1

[39] = target: Gal(b1-3)GalNAc(b1-3)Gal(a1-4)Gal(b1-4)Glc
How it was run: as §1

[40] = target: Gal(b1-3)GalNAc(b1-4)Gal(b1-4)Glc
How it was run: as §1

[41] = target: Gal(b1-3)GalNAc(b1-4)[Neu5Ac(a2-3)]Gal(b1-4)Glc
How it was run: as §1

[42] = target: Gal(b1-3)GlcNAc
How it was run: as §1

[43] = target: Gal(b1-3)GlcNAc(a1-3)Gal(b1-4)GlcNAc
How it was run: as §1

[44] = target: Gal(b1-3)GlcNAc(a1-6)Gal(b1-4)GlcNAc
How it was run: as §1

[45] = target: Gal(b1-3)GlcNAc(b1-2)Man
How it was run: as §1

B1: AFL6 (Aspergillus fumigatus), Q4WKJ1 (protein)
chain: MSFHLTAEDIRIEDGHRLVARLRNADGDLQDASIDLNTCLGNDNGHFQWDGVDFSHSAQDVHFAIEGGGQVPVLRAQLANQDGEFQDADVNLSERIENINGEFVFH
- glycan array binding signal (z-score) [1]: -0.662
- glycan array binding signal (z-score) [2]: -0.346
- glycan array binding signal (z-score) [3]: 0.658
- glycan array binding signal (z-score) [4]: -0.791
- glycan array binding signal (z-score) [5]: -0.188
- glycan array binding signal (z-score) [6]: 0.271
- glycan array binding signal (z-score) [7]: -0.764
- glycan array binding signal (z-score) [8]: -0.227
- glycan array binding signal (z-score) [9]: -0.536
- glycan array binding signal (z-score) [10]: -0.467
- glycan array binding signal (z-score) [11]: 0.406
- glycan array binding signal (z-score) [12]: 0.065
- glycan array binding signal (z-score) [13]: -0.422
- glycan array binding signal (z-score) [14]: 1.62
- glycan array binding signal (z-score) [15]: -0.277
- glycan array binding signal (z-score) [16]: -0.297
- glycan array binding signal (z-score) [17]: -0.237
- glycan array binding signal (z-score) [18]: 0.5
- glycan array binding signal (z-score) [19]: -0.902
- glycan array binding signal (z-score) [20]: -0.405
- glycan array binding signal (z-score) [21]: -0.643
- glycan array binding signal (z-score) [22]: 1.2
- glycan array binding signal (z-score) [23]: -0.331
- glycan array binding signal (z-score) [24]: 0.059
- glycan array binding signal (z-score) [25]: -0.225
- glycan array binding signal (z-score) [26]: -0.252
- glycan array binding signal (z-score) [27]: 0.039
- glycan array binding signal (z-score) [28]: 0.205
- glycan array binding signal (z-score) [29]: 0.039
- glycan array binding signal (z-score) [30]: -0.561
- glycan array binding signal (z-score) [31]: -0.589
- glycan array binding signal (z-score) [32]: 0.442
- glycan array binding signal (z-score) [33]: -0.368
- glycan array binding signal (z-score) [34]: -0.721
- glycan array binding signal (z-score) [35]: 0.233
- glycan array binding signal (z-score) [36]: -0.509
- glycan array binding signal (z-score) [37]: 0.025
- glycan array binding signal (z-score) [38]: -0.263
- glycan array binding signal (z-score) [39]: -0.089
- glycan array binding signal (z-score) [40]: 0.396
- glycan array binding signal (z-score) [41]: -0.423
- glycan array binding signal (z-score) [42]: -0.506
- glycan array binding signal (z-score) [43]: -0.204
- glycan array binding signal (z-score) [44]: 0.123
- glycan array binding signal (z-score) [45]: -0.385
